PubChem BioAssay AID1259279 | Sanger Institute | 2017
Here is a random part of 794 reagents tested. In the full data, 11 (1.4%) are marked active. 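Calls reflect knock-down alone in the vehicle arm, not drug synergy.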 Viability is capped at 1. The record does not give: the amount of reagent, the time to read-out.

Assay: 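Find kinases whose loss works with colorectal cancer drugs to kill cells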 (primary screen)
Cells: LS180 human colorectal cancer cells
Reagents: siRNA pool against human genes
Challenge: anchor drug BYL719 at 1 µM, cetuximab at 5 µg/ml or trametinib at 10 nM, or DMSO vehicle only
Detection: 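Cell viability versus a non-targeting pool, as a fraction and as a robust z-score from replicate means, plus a synergy score for each of three drugs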
Scale: viability z-score, no drug: higher = more viable cells after knock-down; viability, no drug: higher = more viable cells; synergy score with BYL719 and synergy score with cetuximab and synergy score with trametinib: higher = stronger synthetic lethal synergy with drug
Call rule: 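Essential (active) calls need a no-drug viability z-score lower than -3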
Meaning of the calls: active = essential (knock-down alone cuts viability); inactive = no change without drug

gene	viability z-score, no drug	viability, no drug (fraction)	synergy score with BYL719	synergy score with cetuximab	synergy score with trametinib	Outcome
TYRO3 (TYRO3 protein tyrosine kinase)	-0.912	0.807	-0.134	-0.254	-0.136	inactive
EPHA10 (EPH receptor A10)	-0.325	0.871	-0.0176	-0.124	0.0724	inactive
RAF1 (Raf-1 proto-oncogene, serine/threonine kinase)	0.86	1	0.0169	0.0781	0.166	inactive
ELP1 (elongator acetyltransferase complex subunit 1)	0.466	0.957	-0.169	-0.202	-0.135	inactive
BRD2 (bromodomain containing 2)	0.86	1	-0.0747	-0.166	-0.121	inactive
ERN2 (endoplasmic reticulum to nucleus signaling 2)	0.86	1	-0.0496	-0.089	-0.0477	inactive
WEE1 (WEE1 G2 checkpoint kinase)	-2.47	0.637	-0.0207	-0.102	-0.0346	inactive
FLT3 (fms related receptor tyrosine kinase 3)	0.679	0.98	0.0686	-0.148	0.0347	inactive
PDXK (pyridoxal kinase)	0.86	1	-0.201	-0.166	0.139	inactive
DGKH (diacylglycerol kinase eta)	-1.48	0.745	0.0864	-0.0471	0.0252	inactive
TLK1 (tousled like kinase 1)	-1.41	0.753	-0.0947	0.0314	0.0904	inactive
SPHK2 (sphingosine kinase 2)	-0.29	0.875	-0.0775	-0.0431	0.0274	inactive
FGFR3 (fibroblast growth factor receptor 3)	-2.15	0.672	-0.14	-0.148	-0.211	inactive
ETNK1 (ethanolamine kinase 1)	-0.214	0.883	-0.232	0.0136	0.0423	inactive
NRBP1 (nuclear receptor binding protein 1)	-0.8	0.819	-0.253	-0.165	-0.253	inactive
MYLK2 (myosin light chain kinase 2)	-1.22	0.774	0.0352	-0.0655	0.113	inactive
CKMT2 (creatine kinase, mitochondrial 2)	0.86	1	0.0729	-0.0815	-0.048	inactive
CDK5R2 (cyclin dependent kinase 5 regulatory subunit 2)	0.151	0.923	-0.082	0.0349	-0.239	inactive
CHEK1 (checkpoint kinase 1)	-1.22	0.773	0.119	0.0832	-0.0802	inactive
BRD3 (bromodomain containing 3)	0.86	1	-0.166	-0.0771	0.0504	inactive
MPP3 (MAGUK p55 scaffold protein 3)	-2.31	0.655	-0.0773	-0.0487	0.0368	inactive
THNSL1 (threonine synthase like 1)	0.66	0.978	-0.158	-0.134	-0.0827	inactive
GALK2 (galactokinase 2)	0.86	1	0.0975	0.0973	0.0792	inactive
DAPK1 (death associated protein kinase 1)	-0.8	0.819	-0.2	-0.258	-0.107	inactive
MYLK (myosin light chain kinase)	-0.525	0.849	-0.198	-0.14	-0.0564	inactive
EPHB6 (EPH receptor B6)	0.86	1	-0.157	-0.166	0.0131	inactive
CRIM1 (cysteine rich transmembrane BMP regulator 1)	0.738	0.987	-0.0266	0.162	0.236	inactive
ULK4 (unc-51 like kinase 4)	-0.762	0.823	-0.0596	0.0107	0.114	inactive
CTNNB1 (catenin beta 1)	-3.77	0.495	-0.191	-0.3	-0.317	active
FLT1 (fms related receptor tyrosine kinase 1)	0.86	1	-0.149	-0.166	-0.155	inactive
CAMK2D (calcium/calmodulin dependent protein kinase II delta)	0.86	1	-0.118	-0.166	-0.122	inactive
EPHA6 (EPH receptor A6)	-1.09	0.787	0.0768	0.0596	0.123	inactive
INSR (insulin receptor)	0.238	0.932	-0.102	0.0225	-0.0727	inactive
CDK16 (cyclin dependent kinase 16)	-2.03	0.685	-0.0136	-0.0343	0.00749	inactive
SPHK1 (sphingosine kinase 1)	0.86	1	0.0721	-0.0983	0.0464	inactive
IP6K3 (inositol hexakisphosphate kinase 3)	-1.17	0.779	-0.00155	0.0598	0.0296	inactive
FYN (FYN proto-oncogene, Src family tyrosine kinase)	0.86	1	0.00376	-0.0802	-0.105	inactive
CERK (ceramide kinase)	0.825	0.996	0.0241	0.026	0.0933	inactive
ASPM (assembly factor for spindle microtubules)	-0.339	0.869	-0.128	-0.0744	-0.183	inactive
ACVR1C (activin A receptor type 1C)	0.86	1	-0.0665	-0.0261	-0.00975	inactive
HUNK (hormonally up-regulated Neu-associated kinase)	-3.36	0.54	-0.0264	-0.0491	-0.0144	active
EPHB2 (EPH receptor B2)	0.84	0.998	-0.0549	-0.157	-0.00104	inactive
CDKN1B (cyclin dependent kinase inhibitor 1B)	0.706	0.983	-0.000675	-0.0383	-0.0654	inactive
DGKI (diacylglycerol kinase iota)	0.86	1	-0.163	-0.117	-0.0223	inactive
PTPRU (protein tyrosine phosphatase receptor type U)	0.033	0.91	0.183	-0.0467	0.0443	inactive
PAK1 (p21 (RAC1) activated kinase 1)	0.223	0.931	0.0494	0.102	0.119	inactive
TAB1 (TGF-beta activated kinase 1 (MAP3K7) binding protein 1)	0.849	0.999	0.0108	-0.167	0.0791	inactive
PDGFRB (platelet derived growth factor receptor beta)	-1.83	0.706	-0.0517	-0.196	-0.145	inactive
AXIN2 (axin 2)	-0.251	0.879	-0.0947	-0.0152	-0.131	inactive
CKS2 (CDC28 protein kinase regulatory subunit 2)	0.564	0.968	-0.119	-0.0265	-0.12	inactive

Called active, among the entries above:
gene	viability z-score, no drug	viability, no drug (fraction)	synergy score with BYL719	synergy score with cetuximab	synergy score with trametinib	Outcome
CTNNB1 (catenin beta 1)	-3.77	0.495	-0.191	-0.3	-0.317	active
HUNK (hormonally up-regulated Neu-associated kinase)	-3.36	0.54	-0.0264	-0.0491	-0.0144	active
